Experimental data reported in PubChem BioAssay AID2417 (National Center for Advancing Translational Sciences (NCATS), 2010).
Among all 140,000 compounds or so, about 4,300 (3.1%) were called active. This list was built around the results that the source calls inconclusive (neither active nor inactive); the mix of calls is not that of the screen.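 How the source made its calls: active means readout at or below -70, meaning at least 70% loss of cells showing the perinucleolar compartment, a nuclear body marking cancer cells; inconclusive means readout between -30 and a set limit; inactive means the rest.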

Assay: High Content Assay for Compounds that inhibit the Assembly of the Perinucleolar Compartment;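 further: plate controls were DMSO wells for no effect and camptothecin positive control wells for full effect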
Conditions: PC3M PTB-GFP, PNC prevalence imaging, 16 h; at 10 µM; hits give low values
Method in brief: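 Read-out is percentage of cells bearing a perinucleolar compartment, from automated 20x imaging of fixed, Hoechst-stained PC3M PTB-GFP cells. Cells were seeded 4 h, then exposed 16 h to compound (23 nl of library stock) in duplicate plates.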

SMILES | activity change (PNC), negative = inhibition
Cc1nn(CCC(=O)O)c(C)c1C | inconclusive: -54.6%
Cc1ccc(C(=O)n2cnnc2N)cc1 | inconclusive: -41.2%
O=C(Nc1ccccc1Br)C1CCN(C(=O)Cc2ccccc2)CC1 | inactive: 36%
Cc1nccn1-c1cc(C(C)(C)C)nc2c(-c3ccccc3)cnn12 | inactive: -21.8%
CCNC(=O)CC1C(=O)N(c2ccccc2)C(=O)N1Cc1ccc(OC)cc1 (centres undefined) | inconclusive: -60.7%
CC(=O)C1=C(C)NC(SCc2cccc3ccccc23)=C(C#N)C1c1ccco1 (centres undefined) | inactive: 5.75%
CCCCNC(=O)Cc1ccc(C)cc1 | inactive: 14.9%
Cc1cc(-c2ccccc2C(=O)NCc2ccccc2)on1 | inconclusive: -30.9%
CC(C)OCC1CC(CC(=O)NC(=S)Nc2cccc([N+](=O)[O-])c2)C(=O)O1 (centres undefined) | active: -100%
CCOC(=O)c1c(C)nc2sccn12 | inactive: 59.1%
CCOc1ccc(C(=O)NC(=S)Nc2ccc(N3CCC(C)CC3)cc2)cc1[N+](=O)[O-] | active: -119%
CCOC(=O)c1ccc(NC(=O)CN(c2ccc(C)cc2)S(=O)(=O)c2c(C)nn(C)c2C)cc1 | inconclusive: -37.5%
N#Cc1nc(-c2ccco2)oc1NCCCN1CCOCC1 | inactive: 109%
Cc1ccc(C(=O)c2cc([N+](=O)[O-])ccc2N2CCN(C)CC2)cc1 | inactive: -6.04%
COC(=O)CSc1cc(C(=O)c2nccn2C)c2ccccc2n1 | inconclusive: -41.5%
O=C(CCc1ccccc1)Nc1nc2ccc(S(=O)(=O)N3CCOCC3)cc2s1 | inconclusive: -45.8%
Cc1ccc(S(=O)(=O)CC(O)CN2CCCC2=O)cc1 (centres undefined) | inconclusive: -39.6%
Cc1ccc(S(=O)(=O)NC(=O)NCc2ccccn2)cc1 | inactive: -2.7%
CCC1(C)Cc2c(sc(NC(=S)NC(=O)c3ccccc3)c2C#N)CO1 (centres undefined) | inconclusive: -47%
CCOC(=O)C1C(=O)CC(C)(O)C(C(=O)OCC)C1c1ccc(C)s1 (centres undefined) | inconclusive: -40.1%

SMILES | activity change (PNC), negative = inhibition
CC(=O)Nc1ccccc1C(=O)C(=O)Nc1ccccc1 | inconclusive: -30.8%
Cc1sc2ncn(CC(=O)OC(C)C)c(=O)c2c1C | inconclusive: -30.6%
CCN1/C(=C/C(C)=O)Sc2ccc(OC)cc21 | inconclusive: -62%
CCOc1ccc(S(=O)(=O)Nc2ccc(Cl)cn2)c(C)c1C | inconclusive: -76%
O=C(O)c1ccccc1C(=O)N1CCN(c2ccccc2)CC1 | inactive: -25.6%
Cc1ccccc1S(=O)(=O)Cc1ccc(C(=O)N2CC(C)CC(C)C2)o1 (centres undefined) | inactive: -3.2%
COc1cc(NC(=S)NCc2ccco2)cc(OC)c1OC | inconclusive: -47%
COc1ccc(-c2nc3ccccn3c2/N=C/c2ccc(OC)c(OC)c2)cc1O | inactive: 32.5%
Nc1nnc(-c2ccc(F)cc2)s1 | inactive: 17.7%
CCc1cc2c(NCC3CCCO3)ncnc2s1 (centres undefined) | inactive: 10.8%
CCN(CC)C(=O)CSc1nnc(COc2ccccc2)n1CC | inactive: 9.2%
COc1cccc(S(=O)(=O)NCc2ccc(C(=O)NCc3ccco3)cc2)c1 | inconclusive: -59.5%
Cc1ccc(OCc2ccc(C(=O)Nc3nc4ccccc4n3C)o2)c([N+](=O)[O-])c1 | inactive: 75.8%
COc1ccc(NC(=O)CN(C)S(=O)(=O)c2cccc3cccnc23)cc1 | inconclusive: -32.2%
O=C(Nc1c(C(=O)C2CC2)oc2ccccc12)c1ccc(Cl)cc1 | inactive: -18.4%
Cc1ccc(-c2nnn(CC(=O)N3CCN(c4ccccc4)CC3)n2)o1 | inactive: -5.94%
O=C(CN1CCN(c2ccc(Cl)cc2)CC1)Nc1ccc(F)c(F)c1 | inactive: 44.5%
COc1ccccc1C(=O)/C=C/c1ccc(N2CCCCC2)c([N+](=O)[O-])c1 | inconclusive: -49.1%
COc1ccc(-n2c3c(cc(C(=O)N4CCN(CCO)CC4)c2=O)C(=O)CC(C)(C)C3)cc1 | inactive: 20%
Cn1cnnc1SCC(=O)Nc1cccc(C(=O)O)c1 | inconclusive: -35.6%

SMILES | activity change (PNC), negative = inhibition
Cc1csc(SCC(=O)Nc2cc(S(=O)(=O)N3CCCC3)ccc2Cl)n1 | inconclusive: -30.6%
Cn1c(=O)c2c(SCC(N)=O)nc(CC(C)(C)C)nc2n(C)c1=O | inconclusive: -51.2%
CN(C)S(=O)(=O)c1cccc(C(=O)Nc2cc(Cl)cc(Cl)c2)c1 | inconclusive: -41.3%
CCOC(=O)CCCCC(=O)c1[nH]c(=O)[nH]c1Cn1cnc2ccccc21 | inconclusive: -34.6%
O=C(CN1C(=O)COc2ccccc21)N(Cc1cccnc1)Cc1cccc(F)c1 | inconclusive: -30.8%
NNC(=O)c1ccc(COc2ccccc2)cc1 | inactive: -8.38%
Cc1ccc2[nH]c(=O)c(C(c3nnnn3Cc3ccccc3)N3CCc4ccccc43)cc2c1 (centres undefined) | inconclusive: -32.9%
CCc1c(O)cc2n(c1=O)-c1ccccc1C2(C)C | inconclusive: -37.2%
CC(C)=CCC/C(C)=C/CC(C)(C)CNCCN1CCNCC1 | inconclusive: -57.3%
Cc1cc(C)nc(SCc2cc(=O)c(OC(=O)c3ccc(S(=O)(=O)N(C)C)cc3)co2)n1 | inconclusive: -38.4%
CCN(CC)S(=O)(=O)c1ccc(-c2nnc(SCC(C)=O)o2)cc1 | inconclusive: -48.8%
CCOc1nc(-c2ccc(C)cc2)ccc1-c1noc(-c2cccnc2)n1 | inactive: 19.1%
O=C(CN1CCN(c2ccccc2)CC1)Nc1ccc(OCc2ccccc2)cc1 | inactive: 12.5%
CCc1ccc(-c2cc(-c3n[nH]c(=S)n3CC)c3ccccc3n2)cc1 | inconclusive: -47.3%
CCOC(=O)CSc1nc2cc(OCC)ccc2cc1C#N | inactive: 7.51%
O=[N+]([O-])c1cc2c(c(CSc3nnc4ccccn34)c1)OCOC2 | inactive: 31.7%
CC(/C=C/c1ccco1)=N/NC(=O)OC(C)(C)C | inconclusive: -56.6%
CN(C)c1nc(N)nc(CSc2nnnn2C)n1 | inconclusive: -40.4%
COc1ccccc1N1CCN(C(=O)c2cc(-c3ccc(Cl)c(Cl)c3)on2)CC1 | inactive: 321%

Taken from above:
Value of Nc1nnc(-c2ccc(F)cc2)s1 under activity change (PNC), negative = inhibition: inactive: 17.7%
Value of CCOc1nc(-c2ccc(C)cc2)ccc1-c1noc(-c2cccnc2)n1 under activity change (PNC), negative = inhibition: inactive: 19.1%
Value of Cn1c(=O)c2c(SCC(N)=O)nc(CC(C)(C)C)nc2n(C)c1=O under activity change (PNC), negative = inhibition: inconclusive: -51.2%
